From paper PMC7704496

Chains of the proteins cited; added tags and fusions are not shown. Lines headed by an entry give the natural chain unless they say otherwise; changes in a name come on top.
UniProt O54310: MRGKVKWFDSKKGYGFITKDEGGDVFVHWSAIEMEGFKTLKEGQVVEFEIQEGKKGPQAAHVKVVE

Tests used:
[1] = biological target: TmCsp (cold shock protein) (Thermotoga maritima) (UniProt O54310); test: Trp fluorescence quenching; settings: recombinant protein, label: none (5'-fluorescein in EMSA), single-stranded DNA
[2] = biological target: TmCsp (cold shock protein) (Thermotoga maritima) (UniProt O54310); test: EMSA; settings: 0.5 uM oligo, room temperature, EMSA: 50 mM NaH2PO4 pH 6.5, 20 mM NaCl, 0.2 mM EDTA, room temperature 1 h, 20% gel in 1xTBE at 4 C, recombinant protein, label: none (5'-fluorescein in EMSA), single-stranded DNA
[3] = up to 100 uM TmCsp (also 300 uM)

Sequence | Kd ([1]; 323 K) | Kd ([1]; 343 K) | binding result [2, 3] | binding result ([2]; up to 100 uM TmCsp)
AAAAAAA [(dA)7] | 19.2 µM | 25.2 µM | no binding | –
GGGGGGG [(dG)7] | – | – | no binding | –
CCCCCCC [(dC)7] | – | – | – | no binding

The exact form of at least one protein or probe is not confirmed. For some assays here: No signal at the amounts used counts as a negative.
